According to paper PMC9687537:
Results are given in words; binding and its absence hold for the method and conditions named. Binding seen in cells or lysates may run through a third protein. These calls come from enrichment with a bait or labelling near it, and not all partners need be listed.

Protein sequences, listed by entry. Tags and fused reporters are not part of them. Lines headed by an entry give the natural chain unless they say otherwise; changes in a name come on top. Residues count along the entry.
UniProt Q96EX3: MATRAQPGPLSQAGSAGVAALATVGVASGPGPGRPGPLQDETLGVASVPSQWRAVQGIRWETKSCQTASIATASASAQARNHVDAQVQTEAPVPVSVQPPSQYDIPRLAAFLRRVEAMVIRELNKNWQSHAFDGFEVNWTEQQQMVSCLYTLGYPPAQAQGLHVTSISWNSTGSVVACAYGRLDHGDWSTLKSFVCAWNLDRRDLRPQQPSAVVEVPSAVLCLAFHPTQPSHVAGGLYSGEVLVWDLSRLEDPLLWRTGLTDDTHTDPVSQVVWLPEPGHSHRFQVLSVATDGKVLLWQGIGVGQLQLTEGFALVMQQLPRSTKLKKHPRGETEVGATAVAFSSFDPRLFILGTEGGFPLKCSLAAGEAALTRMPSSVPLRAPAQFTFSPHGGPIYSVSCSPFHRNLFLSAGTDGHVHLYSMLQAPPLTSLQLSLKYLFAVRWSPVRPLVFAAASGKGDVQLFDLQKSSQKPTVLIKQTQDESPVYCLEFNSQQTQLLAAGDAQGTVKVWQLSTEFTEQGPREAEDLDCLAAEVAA
GFP–WDR34-p.Q158*: residues 1-157 of Q96EX3
UniProt P63167: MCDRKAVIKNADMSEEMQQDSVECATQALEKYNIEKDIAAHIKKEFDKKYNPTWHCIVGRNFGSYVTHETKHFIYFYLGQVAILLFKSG

Experiments:
[1] = target: GFP–WDR34-p.Q158* (human) (UniProt Q96EX3); assay: affinity purification with mass spectrometry; GFP immunoprecipitates of GFP-WDR34-Gln158* and GFP-WDR34-FL cells; abundance ratios of dynein-2 components in Table S3; two independent experiments (PXD025686)
GFP–WDR34 p.A22V (human) = GFP–WDR34 p.A22V (human) (UniProt Q96EX3); assay: affinity purification with mass spectrometry; GFP-Trap beads on clarified lysates of RPE1 WDR34 KO cells stably expressing GFP proteins, serum-starved 24 h; cells cross-linked with 1 mM DSP before lysis; 16-plex TMT labelling; abundances normalised to WDR34 (GFP only: to GFP) and compared with GFP–WDR34-WT; three independent experiments (PXD032758)
[2] = target: GFP–WDR34 p.C148F (human) (UniProt Q96EX3); assay: as above
[3] = target: GFP–WDR34-p.Q158* (human) (UniProt Q96EX3); assay: as above
[4] = target: GFP–WDR34 p.R447Q (human) (UniProt Q96EX3); assay: as above
[5] = target: GFP–WDR34 p.P390L (human) (UniProt Q96EX3); assay: as above
GFP–WDR34-WT (human) = GFP–WDR34-WT (human) (UniProt Q96EX3); assay: as above
[6] = target: GFP–WDR34 p.A341V (human) (UniProt Q96EX3); assay: as above
[7] = target: GFP–WDR34 p.R182W (human) (UniProt Q96EX3); assay: as above
[8] = target: GFP–WDR34 p.G393S (human) (UniProt Q96EX3); assay: as above
[9] = target: GFP–WDR34 p.R447W (human) (UniProt Q96EX3); assay: as above
[10] = target: GFP–WDR34 p.T354M (human) (UniProt Q96EX3); assay: as above
[11] = target: GFP–WDR34 p.K436R (human) (UniProt Q96EX3); assay: as above
[12] = target: GFP–WDR34 p.R206C (human) (UniProt Q96EX3); assay: as above
[13] = target: GFP–WDR34 p.S410I (human) (UniProt Q96EX3); assay: as above

Measured: binding

DYNLL1 (from UniProt P63167 1-89)
binds: [1] | GFP–WDR34 p.A22V (human) | [2] | [3] | [4] | [5] | GFP–WDR34-WT (human) | [6] | [7] | [8] | [9] | [10] | [11] | [12] | [13]
